Some of the results follow.
Tests used:
Assay in all cases: log2 fold change, soluble protein after heating vs DMSO (PISA); higher = thermal stabilisation; K562 cells, 10 uM, 30 min; active = over 0.2 and 3.5 SD of the protein, either way, in both replicates (recomputed)
[1] = compound: CC1=C(C=C(C=C1)NC(=O)C2=CC(=CC=C2)C(C)(C)C#N)NC3=CC4=C(C=C3)N=CN(C4=O)C
How it was run: (§1)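 Soluble protein was quantified by TMTpro 16plex LC-MS/MS after channel sums were equalised. It was obtained as the supernatant after 21,000xg for 90 min from pooled aliquots of K562 cells (2×10^6 cells/mL, 10 μM compound, 30 min) heated for 3 min across 48°C-58°C and extracted in PBS with 0.5% NP-40 at 4°C. Thermal stability values are relative to control samples and come from duplicates. They are given as log2 fold changes.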

The chains behind the UniProt entries cited, without tags or fusion partners. Where a name states a change or a piece, a line headed by the entry shows the natural chain unless it says otherwise.
UniProt Q12866: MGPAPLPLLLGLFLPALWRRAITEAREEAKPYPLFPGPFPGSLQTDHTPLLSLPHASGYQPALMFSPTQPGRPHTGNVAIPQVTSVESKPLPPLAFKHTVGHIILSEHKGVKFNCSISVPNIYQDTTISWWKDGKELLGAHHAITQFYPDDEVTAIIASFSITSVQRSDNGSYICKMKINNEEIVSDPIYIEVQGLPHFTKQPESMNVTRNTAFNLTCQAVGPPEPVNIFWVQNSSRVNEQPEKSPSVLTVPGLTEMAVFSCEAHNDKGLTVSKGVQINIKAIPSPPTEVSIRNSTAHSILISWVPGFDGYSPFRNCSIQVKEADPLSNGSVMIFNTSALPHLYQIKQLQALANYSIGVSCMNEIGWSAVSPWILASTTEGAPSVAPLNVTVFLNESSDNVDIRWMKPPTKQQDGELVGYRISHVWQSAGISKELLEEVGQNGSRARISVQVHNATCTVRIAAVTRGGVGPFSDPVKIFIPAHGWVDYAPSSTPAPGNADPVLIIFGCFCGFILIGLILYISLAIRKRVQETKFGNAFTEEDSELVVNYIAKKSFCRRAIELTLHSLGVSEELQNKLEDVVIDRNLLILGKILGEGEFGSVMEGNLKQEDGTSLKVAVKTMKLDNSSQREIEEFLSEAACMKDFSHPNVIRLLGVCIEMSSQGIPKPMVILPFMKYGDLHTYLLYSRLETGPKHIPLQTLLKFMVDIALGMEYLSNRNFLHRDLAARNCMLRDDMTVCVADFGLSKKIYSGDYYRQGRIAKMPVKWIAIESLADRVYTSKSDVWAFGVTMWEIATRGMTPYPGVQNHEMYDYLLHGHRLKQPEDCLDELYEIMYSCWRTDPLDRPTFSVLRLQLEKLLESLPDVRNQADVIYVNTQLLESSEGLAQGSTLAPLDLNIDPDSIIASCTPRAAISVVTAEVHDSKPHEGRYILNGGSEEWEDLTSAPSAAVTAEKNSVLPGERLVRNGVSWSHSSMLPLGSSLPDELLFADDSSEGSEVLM
UniProt P23368: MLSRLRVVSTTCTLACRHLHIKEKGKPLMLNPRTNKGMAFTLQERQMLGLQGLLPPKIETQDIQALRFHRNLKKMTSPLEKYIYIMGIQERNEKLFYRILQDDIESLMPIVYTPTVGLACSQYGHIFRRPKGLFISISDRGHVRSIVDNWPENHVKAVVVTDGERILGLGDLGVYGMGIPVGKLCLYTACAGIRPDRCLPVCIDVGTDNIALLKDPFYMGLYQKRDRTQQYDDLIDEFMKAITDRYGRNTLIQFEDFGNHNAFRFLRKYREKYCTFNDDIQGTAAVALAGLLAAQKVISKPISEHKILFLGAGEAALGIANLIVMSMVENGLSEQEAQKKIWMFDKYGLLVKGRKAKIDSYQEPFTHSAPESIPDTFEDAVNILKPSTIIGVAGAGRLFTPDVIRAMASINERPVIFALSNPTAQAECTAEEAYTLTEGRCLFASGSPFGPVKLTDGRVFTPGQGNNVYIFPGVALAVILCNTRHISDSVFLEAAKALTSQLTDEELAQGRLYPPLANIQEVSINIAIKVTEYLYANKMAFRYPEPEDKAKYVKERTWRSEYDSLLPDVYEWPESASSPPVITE
UniProt Q9GZU1, whole entry, looked up: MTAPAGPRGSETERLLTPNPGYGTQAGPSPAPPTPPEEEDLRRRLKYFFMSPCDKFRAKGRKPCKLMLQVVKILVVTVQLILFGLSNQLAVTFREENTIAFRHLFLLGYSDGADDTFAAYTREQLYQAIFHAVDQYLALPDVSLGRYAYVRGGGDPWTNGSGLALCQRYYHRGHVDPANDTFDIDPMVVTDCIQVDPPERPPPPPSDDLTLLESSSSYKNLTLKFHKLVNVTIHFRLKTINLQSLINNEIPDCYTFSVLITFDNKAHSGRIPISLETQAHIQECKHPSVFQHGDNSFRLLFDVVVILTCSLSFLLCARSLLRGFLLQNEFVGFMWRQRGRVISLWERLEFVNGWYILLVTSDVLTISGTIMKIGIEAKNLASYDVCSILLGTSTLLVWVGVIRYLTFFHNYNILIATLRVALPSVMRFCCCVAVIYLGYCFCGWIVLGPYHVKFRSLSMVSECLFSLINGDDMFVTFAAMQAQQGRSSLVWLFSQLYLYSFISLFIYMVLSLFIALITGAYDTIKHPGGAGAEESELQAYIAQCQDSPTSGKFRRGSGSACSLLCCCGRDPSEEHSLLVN
UniProt Q9H3U5: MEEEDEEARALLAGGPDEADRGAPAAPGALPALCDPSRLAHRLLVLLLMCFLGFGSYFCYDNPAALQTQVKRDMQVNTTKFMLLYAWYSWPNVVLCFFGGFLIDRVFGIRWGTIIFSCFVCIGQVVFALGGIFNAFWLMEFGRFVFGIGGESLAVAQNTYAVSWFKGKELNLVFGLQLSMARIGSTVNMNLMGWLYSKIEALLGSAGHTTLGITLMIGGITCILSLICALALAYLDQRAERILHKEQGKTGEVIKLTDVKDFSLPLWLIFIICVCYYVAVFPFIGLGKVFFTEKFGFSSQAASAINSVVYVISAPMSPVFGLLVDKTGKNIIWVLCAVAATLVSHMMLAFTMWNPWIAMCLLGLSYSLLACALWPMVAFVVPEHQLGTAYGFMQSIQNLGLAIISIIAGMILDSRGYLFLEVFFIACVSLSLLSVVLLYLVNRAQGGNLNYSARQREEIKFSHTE
UniProt Q5TF39: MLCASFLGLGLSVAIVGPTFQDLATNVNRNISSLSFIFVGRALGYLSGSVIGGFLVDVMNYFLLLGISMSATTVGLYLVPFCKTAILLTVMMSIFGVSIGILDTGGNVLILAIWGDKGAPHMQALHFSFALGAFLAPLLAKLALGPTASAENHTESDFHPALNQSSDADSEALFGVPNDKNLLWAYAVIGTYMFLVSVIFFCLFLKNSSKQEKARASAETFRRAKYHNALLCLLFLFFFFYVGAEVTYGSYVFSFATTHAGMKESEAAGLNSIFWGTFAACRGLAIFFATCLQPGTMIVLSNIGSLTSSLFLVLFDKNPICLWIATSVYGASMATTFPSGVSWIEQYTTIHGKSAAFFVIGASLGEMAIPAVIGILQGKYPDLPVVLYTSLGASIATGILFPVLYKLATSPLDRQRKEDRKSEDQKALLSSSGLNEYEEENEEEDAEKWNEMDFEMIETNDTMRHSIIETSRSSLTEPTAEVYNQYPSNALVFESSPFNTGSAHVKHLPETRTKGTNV
UniProt Q9NR56: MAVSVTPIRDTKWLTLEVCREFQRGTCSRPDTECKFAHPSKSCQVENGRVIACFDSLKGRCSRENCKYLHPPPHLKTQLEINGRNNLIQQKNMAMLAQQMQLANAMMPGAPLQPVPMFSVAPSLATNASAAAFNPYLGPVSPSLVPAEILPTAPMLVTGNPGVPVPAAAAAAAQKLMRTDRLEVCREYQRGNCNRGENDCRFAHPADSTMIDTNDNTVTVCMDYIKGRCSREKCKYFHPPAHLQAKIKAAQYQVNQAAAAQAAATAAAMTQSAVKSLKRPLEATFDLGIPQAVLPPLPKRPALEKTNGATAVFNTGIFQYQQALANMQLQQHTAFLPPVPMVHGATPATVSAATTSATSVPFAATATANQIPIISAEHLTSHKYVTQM
UniProt Q5SR56: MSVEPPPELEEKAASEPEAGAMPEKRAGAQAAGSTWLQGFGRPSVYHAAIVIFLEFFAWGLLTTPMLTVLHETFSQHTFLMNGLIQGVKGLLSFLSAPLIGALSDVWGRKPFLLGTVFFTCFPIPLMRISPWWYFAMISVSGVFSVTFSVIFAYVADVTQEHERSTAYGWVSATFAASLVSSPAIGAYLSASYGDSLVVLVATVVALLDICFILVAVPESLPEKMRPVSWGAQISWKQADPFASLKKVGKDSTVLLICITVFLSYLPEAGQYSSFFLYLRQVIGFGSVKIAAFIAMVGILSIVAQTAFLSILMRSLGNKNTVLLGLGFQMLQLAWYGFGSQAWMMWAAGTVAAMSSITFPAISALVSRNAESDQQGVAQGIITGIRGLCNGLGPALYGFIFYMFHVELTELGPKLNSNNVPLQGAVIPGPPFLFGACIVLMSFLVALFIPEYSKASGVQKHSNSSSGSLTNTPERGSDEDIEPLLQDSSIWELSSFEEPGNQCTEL
UniProt Q9UHV7: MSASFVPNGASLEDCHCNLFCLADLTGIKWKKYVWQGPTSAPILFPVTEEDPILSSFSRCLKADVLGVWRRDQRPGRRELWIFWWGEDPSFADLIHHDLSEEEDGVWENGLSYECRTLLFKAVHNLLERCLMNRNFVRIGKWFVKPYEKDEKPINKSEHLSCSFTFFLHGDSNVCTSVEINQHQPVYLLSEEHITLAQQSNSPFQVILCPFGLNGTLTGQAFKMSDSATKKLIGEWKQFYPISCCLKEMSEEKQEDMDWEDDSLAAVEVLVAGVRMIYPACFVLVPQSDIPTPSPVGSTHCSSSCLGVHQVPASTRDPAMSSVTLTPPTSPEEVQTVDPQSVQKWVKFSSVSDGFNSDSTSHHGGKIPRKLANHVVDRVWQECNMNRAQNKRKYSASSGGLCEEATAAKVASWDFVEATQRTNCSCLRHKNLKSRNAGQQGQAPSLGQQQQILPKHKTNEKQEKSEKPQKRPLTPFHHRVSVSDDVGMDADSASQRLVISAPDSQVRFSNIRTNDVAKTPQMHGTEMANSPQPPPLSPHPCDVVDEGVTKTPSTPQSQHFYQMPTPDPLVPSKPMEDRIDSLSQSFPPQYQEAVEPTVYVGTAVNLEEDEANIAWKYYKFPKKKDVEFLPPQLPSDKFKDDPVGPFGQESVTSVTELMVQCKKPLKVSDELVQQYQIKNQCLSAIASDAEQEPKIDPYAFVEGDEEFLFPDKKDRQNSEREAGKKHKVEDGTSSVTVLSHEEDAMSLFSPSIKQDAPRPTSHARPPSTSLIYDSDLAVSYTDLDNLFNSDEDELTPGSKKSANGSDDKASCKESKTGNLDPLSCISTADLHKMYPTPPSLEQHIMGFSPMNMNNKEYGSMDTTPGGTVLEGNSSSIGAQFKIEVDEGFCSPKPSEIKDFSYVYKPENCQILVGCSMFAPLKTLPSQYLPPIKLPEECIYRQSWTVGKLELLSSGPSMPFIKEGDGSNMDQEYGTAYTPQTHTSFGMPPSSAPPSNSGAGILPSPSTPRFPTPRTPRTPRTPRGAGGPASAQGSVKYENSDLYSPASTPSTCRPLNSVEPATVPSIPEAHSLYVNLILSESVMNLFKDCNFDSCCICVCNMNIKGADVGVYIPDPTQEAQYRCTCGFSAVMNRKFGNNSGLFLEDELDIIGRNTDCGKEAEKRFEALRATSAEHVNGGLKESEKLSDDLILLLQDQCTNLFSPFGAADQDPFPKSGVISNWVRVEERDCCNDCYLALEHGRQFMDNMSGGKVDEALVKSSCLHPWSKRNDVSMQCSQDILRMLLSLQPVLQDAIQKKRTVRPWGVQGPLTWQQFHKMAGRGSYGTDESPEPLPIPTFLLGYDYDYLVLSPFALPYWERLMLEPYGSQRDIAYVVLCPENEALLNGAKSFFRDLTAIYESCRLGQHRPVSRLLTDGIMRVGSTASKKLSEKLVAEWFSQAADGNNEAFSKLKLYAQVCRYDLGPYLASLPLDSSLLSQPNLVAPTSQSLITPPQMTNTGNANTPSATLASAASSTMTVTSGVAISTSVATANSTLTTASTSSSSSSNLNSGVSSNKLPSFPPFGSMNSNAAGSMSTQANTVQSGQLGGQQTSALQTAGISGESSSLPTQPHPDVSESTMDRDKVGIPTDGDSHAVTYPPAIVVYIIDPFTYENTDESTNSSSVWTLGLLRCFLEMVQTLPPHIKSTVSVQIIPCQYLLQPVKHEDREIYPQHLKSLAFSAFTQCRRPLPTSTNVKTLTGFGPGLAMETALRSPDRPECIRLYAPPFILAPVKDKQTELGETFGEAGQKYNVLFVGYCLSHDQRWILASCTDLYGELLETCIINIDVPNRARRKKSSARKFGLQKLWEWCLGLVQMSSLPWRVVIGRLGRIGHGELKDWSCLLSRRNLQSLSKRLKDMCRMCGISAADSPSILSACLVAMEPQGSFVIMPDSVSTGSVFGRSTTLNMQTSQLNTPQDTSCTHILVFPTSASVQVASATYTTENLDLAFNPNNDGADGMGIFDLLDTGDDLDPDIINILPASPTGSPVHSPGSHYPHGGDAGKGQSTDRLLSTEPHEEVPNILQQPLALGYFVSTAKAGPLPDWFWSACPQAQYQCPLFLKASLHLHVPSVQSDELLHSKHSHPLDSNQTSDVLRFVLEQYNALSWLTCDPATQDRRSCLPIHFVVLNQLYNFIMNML
UniProt Q6P1Q9: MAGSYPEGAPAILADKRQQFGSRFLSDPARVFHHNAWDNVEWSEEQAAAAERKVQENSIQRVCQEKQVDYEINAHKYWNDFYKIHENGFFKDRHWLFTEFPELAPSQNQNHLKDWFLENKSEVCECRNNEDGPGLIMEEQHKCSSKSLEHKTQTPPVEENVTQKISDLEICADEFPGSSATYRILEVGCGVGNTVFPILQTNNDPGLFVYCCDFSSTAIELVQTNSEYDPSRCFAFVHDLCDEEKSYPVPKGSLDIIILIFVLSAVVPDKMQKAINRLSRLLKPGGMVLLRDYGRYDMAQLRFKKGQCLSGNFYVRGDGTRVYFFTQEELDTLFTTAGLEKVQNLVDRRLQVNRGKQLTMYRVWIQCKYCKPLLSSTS

[2] = compound: CC1=C(C=C(C=C1)NC(=O)C2=CC(=CC=C2)N(C)C)NC(=O)C3=CC=C(C=C3)O
How it was run: as §1

[3] = compound: CC1=CC=C(C=C1)SC2=C3C=C(SC3=CN=C2)C(=O)N
How it was run: as §1

[4] = compound: CC1=NC(=CC=C1)C2=C(N=C(N2)C(C)(C)C)C3=CC4=NC=CN=C4C=C3
How it was run: as §1

Nexturastat A = compound: CCCCN(Cc1ccc(C(=O)NO)cc1)C(=O)Nc1ccccc1 [Nexturastat A]
How it was run: as §1

vemurafenib = compound: CCCS(=O)(=O)Nc1ccc(F)c(C(=O)c2c[nH]c3ncc(-c4ccc(Cl)cc4)cc23)c1F [vemurafenib]
How it was run: as §1

[5] = compound: CCCS(=O)(=O)Nc1ccc(F)c(C(=O)c2c[nH]c3ncc(Cl)cc23)c1F
How it was run: as §1

[6] = compound: CCCc1cc(C)[nH]c(=O)c1CNC(=O)c1cc(-c2ccnc(N3CCN(C)CC3)c2)cc2c1cnn2C(C)C
How it was run: as §1

givinostat = compound: CCN(CC)Cc1ccc2cc(COC(=O)Nc3ccc(C(=O)NO)cc3)ccc2c1 [givinostat]
How it was run: as §1

[7] = compound: CC[C@@H]1C(=O)N(C)c2cnc(Nc3ccc(C(=O)NC4CCN(C)CC4)cc3OC)nc2N1C1CCCC1
How it was run: as §1

volasertib = compound: CC[C@@H]1C(=O)N(C)c2cnc(Nc3ccc(C(=O)N[C@H]4CC[C@H](N5CCN(CC6CC6)CC5)CC4)cc3OC)nc2N1C(C)C [volasertib]
How it was run: as §1

[8] = compound: CC[C@H](C)N1C=C(C2=C(C=C(C=C21)C3=CN=C(C=C3)N4CCNCC4)C(=O)NCC5=C(C=C(NC5=O)C)C)C
How it was run: as §1

epoxomicin = compound: CC[C@H](C)[C@@H](C(=O)N[C@@H]([C@@H](C)O)C(=O)N[C@@H](CC(C)C)C(=O)[C@]1(CO1)C)NC(=O)[C@H]([C@@H](C)CC)N(C)C(=O)C [epoxomicin]
How it was run: as §1

[9] = compound: CCn1c(C(=O)N(C2CC2)C2CC2)cc2c3c(ncn3C)c(Nc3cc(C)n(C)n3)nc21
How it was run: as §1

[10] = compound: CCn1cc(-c2ccnc3[nH]c(-c4cccc(CN(C)C)c4)cc23)c(-c2ccc(NC(=O)N(C)C)cc2)n1
How it was run: as §1

[11] = compound: CN(C)CC(=O)Nc1ccc2[nH]c(=O)c3ccccc3c2c1
How it was run: as §1

[12] = compound: CN1C2=C(C3=C1C(=O)N(N=C3)CC4=CC(=CC=C4)N)SC(=C2)S(=O)C
How it was run: as §1

[13] = compound: CN1CCC(CNc2ccc3ncc(-c4cccc(OC(F)(F)F)c4)n3n2)CC1
How it was run: as §1

barasertib = compound: CCN(CCCOc1ccc2c(Nc3cc(CC(=O)Nc4cccc(F)c4)[nH]n3)ncnc2c1)CCOP(=O)(O)O [barasertib]
How it was run: as §1

rosiglitazone = compound: CN(CCOC1=CC=C(C=C1)C[C@H]2C(=O)NC(=O)S2)C3=CC=CC=N3 (racemic) [rosiglitazone]
How it was run: as §1

Row | Target | log2 fold change [1] | log2 fold change [2] | log2 fold change [3] | log2 fold change [4] | log2 fold change (Nexturastat A) | log2 fold change (vemurafenib) | log2 fold change [5] | log2 fold change [6] | log2 fold change (givinostat) | log2 fold change [7] | log2 fold change (volasertib) | log2 fold change [8] | log2 fold change (epoxomicin) | log2 fold change [9] | log2 fold change [10] | log2 fold change [11] | log2 fold change [12] | log2 fold change [13] | log2 fold change (barasertib) | log2 fold change (rosiglitazone)
1 | MED10 (UniProt Q9BTT4) | inactive: -0.041 | inactive: -0.053 | inactive: -0.033 | inactive: 0.123 | inactive: 0.043 | inactive: 0.102 | inactive: -0.094 | inactive: 0.063 | inactive: -0.007 | inactive: 0.091 | inactive: 0.074 | inactive: 0.078 | inactive: 0.163 | inactive: 0.011 | inactive: 0.072 | inactive: -0.065 | inactive: -0.02 | inactive: 0.256 |  | 
2 | MERTK (UniProt Q12866) | inactive: 0 |  | inactive: 0.039 | inactive: 0.103 | inactive: -0.092 | inactive: -0.002 | inactive: 0.085 | inactive: -0.035 | inactive: 0.003 | inactive: -0.077 | inactive: -0.145 | inactive: 0.021 | inactive: -0.01 | inactive: 0.006 |  | inactive: -0.026 | inactive: 0.028 |  | inactive: 0.133 | inactive: -0.029
3 | MED19 (UniProt A0JLT2) | inactive: -0.031 | inactive: 0.068 |  | inactive: -0.169 | inactive: 0.217 | inactive: -0.044 |  | inactive: 0.04 |  | inactive: 0.133 |  | inactive: 0.042 | inactive: -0.086 |  | inactive: -0.119 | inactive: 0.086 |  | inactive: -0.134 | inactive: 0.056 | inactive: 0.006
4 | ME2 (UniProt P23368) | inactive: -0.01 | inactive: -0.057 | inactive: -0.044 | inactive: -0.017 | inactive: 0.015 | inactive: 0.011 | inactive: 0.002 | inactive: 0.022 | inactive: 0.027 | inactive: 0.164 | active: 0.445 | inactive: 0.006 | inactive: 0.108 |  | inactive: -0.015 | inactive: -0.002 | inactive: -0.02 | inactive: 0.145 | inactive: 0.018 | 
5 | MCRIP2 (UniProt Q9BUT9) | inactive: -0.102 | inactive: 0.014 | inactive: 0.079 | inactive: -0.101 | inactive: -0.026 |  | inactive: 0.028 |  | inactive: -0.053 | inactive: -0.035 | inactive: -0.083 |  | inactive: -0.16 | inactive: -0.042 | inactive: -0.118 |  | inactive: 0.063 | inactive: -0.037 | inactive: -0.054 | inactive: -0.005
6 | MCOLN1 (UniProt Q9GZU1) | inactive: -0.1 | inactive: 0.073 | inactive: 0.258 | inactive: -0.102 | inactive: 0.205 |  | inactive: -0.007 | inactive: -0.141 | inactive: -0.033 | inactive: -0.001 | inactive: -0.147 | inactive: -0.061 | inactive: 0.012 | inactive: -0.004 | inactive: 0.009 |  | inactive: -0.107 | inactive: -0.057 | inactive: -0.058 | inactive: 0.05
7 | MAST4 (UniProt O15021) | inactive: 0.003 | inactive: -0.246 | inactive: 0.061 | inactive: 0.044 | inactive: -0.08 | inactive: 0.021 | inactive: 0.055 | inactive: 0.072 | inactive: -0.024 | inactive: -0.059 | inactive: -0.22 | inactive: 0.073 | inactive: 0.048 |  | inactive: -0.102 | inactive: -0.009 | inactive: -0.115 | inactive: -0.384 | inactive: 0.028 | 
8 | MFSD1 isoform 6 (UniProt Q9H3U5) | inactive: 0.056 | inactive: -0.008 | inactive: -0.046 |  | inactive: -0.106 | inactive: -0.053 | inactive: -0.059 | inactive: 0.021 | inactive: 0.008 | inactive: -0.022 | inactive: 0.053 | inactive: -0.01 | inactive: 0 |  | inactive: -0.069 | inactive: -0.025 |  | inactive: -0.012 | inactive: 0.041 | 
9 | MED12 isoform 2 (UniProt Q93074) | inactive: 0.034 | inactive: -0.202 | inactive: -0.015 | inactive: -0.09 | inactive: 0.012 |  | inactive: 0.071 | inactive: 0.023 | inactive: 0.106 | inactive: -0.055 | inactive: -0.211 | inactive: 0.091 | inactive: -0.17 |  | inactive: 0.086 |  | inactive: 0.154 | inactive: -0.071 | inactive: -0.135 | 
10 | MFSD4B (UniProt Q5TF39) | inactive: 0.051 | inactive: -0.003 | inactive: -0.094 | inactive: -0.015 | inactive: -0.026 | inactive: 0.129 | inactive: 0.075 | inactive: -0.265 |  | inactive: 0.094 | inactive: -0.075 | inactive: -0.085 | inactive: -0.073 |  | inactive: -0.047 | inactive: -0.064 | inactive: -0.016 | inactive: -0.099 | inactive: 0.035 | inactive: -0.027
11 | MEAK7 (UniProt Q6P9B6) | inactive: 0.081 | inactive: 0.053 | inactive: -0.005 | inactive: 0.015 | inactive: -0.006 | inactive: 0.012 | inactive: 0.067 | inactive: -0.055 | inactive: 0.085 | inactive: -0.084 | active: -0.473 | inactive: 0.039 | inactive: 0.067 |  | inactive: -0.03 | inactive: -0.046 | inactive: -0.033 | inactive: -0.097 | inactive: 0.025 | 
12 | MASTL (UniProt Q96GX5) | inactive: 0.032 | inactive: 0.187 |  | inactive: -0.056 | inactive: -0.149 | inactive: -0.028 |  | inactive: -0.032 | inactive: -0.038 | inactive: -0.02 |  | inactive: 0.045 | inactive: 0.113 |  |  | inactive: -0.143 | inactive: 0.081 |  | inactive: -0.013 | 
13 | MBNL1 isoform 5 (UniProt Q9NR56) | inactive: -0.111 | inactive: 0.009 |  | inactive: 0.158 | inactive: 0.001 |  |  | inactive: -0.079 |  | inactive: -0.063 |  | inactive: -0.069 | inactive: 0.125 |  |  |  |  |  | inactive: -0.088 | inactive: -0.111
14 | MBOAT1 (UniProt Q6ZNC8) | inactive: -0.016 | inactive: -0.055 | inactive: 0.213 | inactive: 0.047 | inactive: -0.007 | inactive: -0.185 | inactive: 0.133 |  | inactive: -0.03 | inactive: -0.07 | inactive: -0.099 | inactive: 0.004 | inactive: 0.049 | inactive: -0.025 |  | inactive: 0.138 | inactive: -0.062 |  | inactive: 0.044 | inactive: 0.02
15 | MGST3 (UniProt O14880) | inactive: -0.029 | inactive: 0.005 | inactive: 0 | inactive: -0.049 | inactive: 0.015 | inactive: -0.037 | inactive: -0.011 | inactive: -0.057 | inactive: 0.003 | inactive: -0.005 | inactive: 0.048 | inactive: -0.107 | inactive: -0.016 |  | inactive: -0.047 | inactive: -0.017 | inactive: -0.027 | inactive: 0.097 | inactive: 0.003 | 
16 | MFSD14B (UniProt Q5SR56) | inactive: -0.089 |  | inactive: -0.03 | inactive: -0.037 | inactive: -0.069 | inactive: 0.069 | inactive: -0.066 | inactive: 0.028 | inactive: -0.025 | inactive: -0.063 | inactive: -0.282 | inactive: 0.041 | inactive: -0.017 | inactive: 0.016 |  | inactive: 0.099 | inactive: -0.036 |  |  | 
17 | MED13 (UniProt Q9UHV7) | inactive: 0.019 | inactive: 0.06 | inactive: -0.066 | inactive: -0.11 | inactive: 0.097 | inactive: -0.244 | inactive: 0.065 | inactive: -0.03 |  | inactive: -0.167 | inactive: -0.293 | inactive: 0.112 | inactive: -0.011 |  | inactive: 0.055 | inactive: 0.076 | inactive: -0.029 | inactive: 0.021 | inactive: 0.032 | inactive: 0.034
18 | MIA2 (UniProt Q96PC5) | inactive: 0.009 | inactive: -0.012 | inactive: -0.002 | inactive: -0.016 | inactive: 0.015 | inactive: 0.003 | inactive: -0.062 | inactive: 0.128 | inactive: 0.003 | inactive: -0.039 | active: -0.29 | inactive: 0.005 | inactive: 0.037 |  | inactive: 0.054 | inactive: 0.005 | inactive: 0.031 | inactive: 0.053 | inactive: 0.021 | 
19 | METTL2B (UniProt Q6P1Q9) | inactive: -0.079 | inactive: -0.033 |  | inactive: 0.062 | inactive: 0.112 | inactive: 0.031 |  | inactive: 0.185 |  |  |  |  | inactive: 0.017 |  | inactive: 0.027 | inactive: 0.055 | inactive: 0.184 | inactive: -0.003 |  | 

Part of the list above, set out differently:

| Row | Target | log2 fold change [1] | log2 fold change [2] | log2 fold change [3] | log2 fold change [4] | log2 fold change (Nexturastat A) | log2 fold change (vemurafenib) | log2 fold change [5] | log2 fold change [6] | log2 fold change (givinostat) | log2 fold change [7] | log2 fold change (volasertib) | log2 fold change [8] | log2 fold change (epoxomicin) | log2 fold change [9] | log2 fold change [10] | log2 fold change [11] | log2 fold change [12] | log2 fold change [13] | log2 fold change (barasertib) | log2 fold change (rosiglitazone) |
| --- | --- | --- | --- | --- | --- | --- | --- | --- | --- | --- | --- | --- | --- | --- | --- | --- | --- | --- | --- | --- | --- |
| 10 | MFSD4B (UniProt Q5TF39) | inactive: 0.051 | inactive: -0.003 | inactive: -0.094 | inactive: -0.015 | inactive: -0.026 | inactive: 0.129 | inactive: 0.075 | inactive: -0.265 |  | inactive: 0.094 | inactive: -0.075 | inactive: -0.085 | inactive: -0.073 |  | inactive: -0.047 | inactive: -0.064 | inactive: -0.016 | inactive: -0.099 | inactive: 0.035 | inactive: -0.027 |
| 11 | MEAK7 (UniProt Q6P9B6) | inactive: 0.081 | inactive: 0.053 | inactive: -0.005 | inactive: 0.015 | inactive: -0.006 | inactive: 0.012 | inactive: 0.067 | inactive: -0.055 | inactive: 0.085 | inactive: -0.084 | active: -0.473 | inactive: 0.039 | inactive: 0.067 |  | inactive: -0.03 | inactive: -0.046 | inactive: -0.033 | inactive: -0.097 | inactive: 0.025 |  |
